Test results reported in paper PMC4656997.
No constants are given. Whether binding was seen depends on the method and setting. Some binding calls cover weakened binding; strength is not graded here. Blank lines part the entries; values can stand above or below the substance they belong to.

Amino acid sequences for entries named in this document (tags omitted). A change or cut given only in a name is not applied to a line headed by its entry. Residues count along the entry.
UniProt Q9NYV4: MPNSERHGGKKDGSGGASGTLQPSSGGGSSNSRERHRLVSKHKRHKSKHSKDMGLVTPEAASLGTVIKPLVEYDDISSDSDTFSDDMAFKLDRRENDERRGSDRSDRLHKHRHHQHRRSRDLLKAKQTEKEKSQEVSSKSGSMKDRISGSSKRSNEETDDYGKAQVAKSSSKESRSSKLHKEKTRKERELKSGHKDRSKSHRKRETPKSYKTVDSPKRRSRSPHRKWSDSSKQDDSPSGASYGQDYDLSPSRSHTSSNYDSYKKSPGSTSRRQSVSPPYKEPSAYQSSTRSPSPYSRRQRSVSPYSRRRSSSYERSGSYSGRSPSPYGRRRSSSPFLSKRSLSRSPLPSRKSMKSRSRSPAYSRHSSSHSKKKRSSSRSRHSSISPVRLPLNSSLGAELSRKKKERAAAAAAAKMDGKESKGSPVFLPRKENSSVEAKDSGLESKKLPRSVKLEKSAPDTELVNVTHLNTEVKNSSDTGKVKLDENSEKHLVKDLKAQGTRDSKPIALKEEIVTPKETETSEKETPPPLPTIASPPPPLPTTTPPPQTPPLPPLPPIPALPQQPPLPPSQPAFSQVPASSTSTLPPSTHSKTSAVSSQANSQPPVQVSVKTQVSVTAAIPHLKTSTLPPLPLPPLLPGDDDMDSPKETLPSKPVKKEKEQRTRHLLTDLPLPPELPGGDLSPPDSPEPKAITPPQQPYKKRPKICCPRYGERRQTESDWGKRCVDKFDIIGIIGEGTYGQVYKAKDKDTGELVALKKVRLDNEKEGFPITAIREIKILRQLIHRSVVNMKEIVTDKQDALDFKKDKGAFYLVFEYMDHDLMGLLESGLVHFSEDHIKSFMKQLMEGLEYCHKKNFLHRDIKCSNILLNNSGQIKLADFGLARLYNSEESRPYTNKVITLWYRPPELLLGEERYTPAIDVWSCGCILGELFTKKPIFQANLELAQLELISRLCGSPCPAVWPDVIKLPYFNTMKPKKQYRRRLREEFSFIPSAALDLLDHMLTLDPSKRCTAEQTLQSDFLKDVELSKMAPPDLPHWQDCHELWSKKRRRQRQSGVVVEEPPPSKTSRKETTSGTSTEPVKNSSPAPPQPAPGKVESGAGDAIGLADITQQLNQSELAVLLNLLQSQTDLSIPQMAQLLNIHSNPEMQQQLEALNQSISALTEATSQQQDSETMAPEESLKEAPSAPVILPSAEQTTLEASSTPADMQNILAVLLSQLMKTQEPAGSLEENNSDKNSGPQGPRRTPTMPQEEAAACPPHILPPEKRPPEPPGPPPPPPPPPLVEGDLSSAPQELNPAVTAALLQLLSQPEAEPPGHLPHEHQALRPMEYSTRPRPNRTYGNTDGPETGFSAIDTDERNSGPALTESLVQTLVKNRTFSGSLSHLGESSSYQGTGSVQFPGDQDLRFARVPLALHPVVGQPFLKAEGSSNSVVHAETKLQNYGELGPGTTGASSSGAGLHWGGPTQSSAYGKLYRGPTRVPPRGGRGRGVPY
CDK12^715–1052: residues 715-1052 of Q9NYV4
CDK12^715–1038: residues 715-1038 of Q9NYV4
UniProt O75909: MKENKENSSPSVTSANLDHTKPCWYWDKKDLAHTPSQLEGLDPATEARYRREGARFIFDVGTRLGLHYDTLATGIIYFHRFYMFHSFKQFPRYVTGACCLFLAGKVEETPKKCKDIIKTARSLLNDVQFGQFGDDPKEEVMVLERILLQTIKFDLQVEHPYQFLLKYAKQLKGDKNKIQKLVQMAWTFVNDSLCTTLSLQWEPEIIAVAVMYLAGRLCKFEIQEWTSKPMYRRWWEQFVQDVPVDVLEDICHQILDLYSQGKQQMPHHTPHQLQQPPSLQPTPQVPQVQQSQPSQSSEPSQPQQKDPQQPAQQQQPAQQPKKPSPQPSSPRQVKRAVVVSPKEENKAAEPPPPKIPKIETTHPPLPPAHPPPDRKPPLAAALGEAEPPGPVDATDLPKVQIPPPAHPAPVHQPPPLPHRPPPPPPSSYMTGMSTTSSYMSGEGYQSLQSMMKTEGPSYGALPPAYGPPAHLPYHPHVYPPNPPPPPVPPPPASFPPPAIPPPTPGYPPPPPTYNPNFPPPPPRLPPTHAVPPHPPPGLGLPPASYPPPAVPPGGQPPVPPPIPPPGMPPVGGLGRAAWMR

Experiments:
CDK12^715–1052 (human) = CDK12^715–1052 (human) (UniProt Q9NYV4); experiment: crystal structure; CDK12^715–1052/cyclin K^11–267 complex, 1 mM AMP-PNP and 5 mM MgCl2 added, crystals grown at 20 °C in 20% PEG3350, 150 mM DL-malic acid; space group P2_(1), 3.15 Å, two complexes in the asymmetric unit; both purified
CDK12^715–1038 (human) = CDK12^715–1038 (human) (UniProt Q9NYV4); experiment: crystal structure; CDK12^715–1038/cyclin K^11–267 complex phosphorylated with CAK, 1 mM AMP-PNP added, crystals grown at 4 °C in 20% PEG3350, 0.1 M Bis-tris propane pH 6.5, 0.2 M sodium nitrate, 10% ethylene glycol, 1 mM MgCl2; space group P2_(1), 3.15 Å; both purified
[1] = target: 6xHis-CDK12 (full length CDK12 Isoform 1) (human) (UniProt Q9NYV4); experiment: tandem affinity co-purification (Ni-NTA agarose, then glutathione agarose); full length proteins co-infected in Sf9 cells, lysate with additional 0.5 M NaCl, captured on Ni-NTA agarose, eluted with imidazole, then bound to glutathione agarose and eluted with glutathione; fractions checked by SDS-PAGE or Western blotting
[2] = target: GST-CDK12 (full length CDK12 Isoform 1) (human) (UniProt Q9NYV4); experiment: as above

- binding (CDK12^715–1052 (human)): binds
- binding (CDK12^715–1038 (human)): binds
Substance: CycK^11–267 (from UniProt O75909 11-267) (domain or fragment)

- binding [1]: binds
Substance: GST-CycK1 (full length cyclin K1) (from UniProt O75909 1-580)

- binding [2]: binds
Substance: 6xHis-CycK1 (full length cyclin K1) (from UniProt O75909 1-580)
